Paper PMC4467156, “A new chemical inhibitor of angiogenesis and tumorigenesis that targets the VEGF signaling pathway upstream of Ras” (Oncotarget, 2015)
Where “and” joins values, the source holds several entries; their conditions need not be identical. Identical values can stand only once. Counter-ions that a name gives are not always drawn.

The compounds below were run on HMEC-GFP cells (assay: Scratch wound closure assay, HMEC-GFP). Conditions: IC50 3T3-GFP / IC50 HMEC-GFP.
Format: cell-based, human
Excerpt: In order to adapt the endothelial scratch wounding assay to the constraints of high throughput screening, we decided to use an endothelial cell line rather than primary cultures for the sake of reproducibility. Since angiogenesis is triggered by capillary endothelial cells, we selected the HMEC-1 cell line which consists of human dermal microvascular endothelial cells stably expressing SV40 […] antigen. We infected this cell line with GFP-encoding retroviral particles and selected one clone (thereafter named HMEC-GFP) that presented a high level of fluorescence and a strong proliferation rate (doubling time in the presence of serum: 22 h). We controlled that GFP expression was stable over at least 50 passages and that these cells still expressed endothelial markers such as VE-cadherin and CD31. In a standard assay, HMEC-GFP cells were grown until confluence in 96-well plates in the presence of serum, scratched with the multi-tip dispenser of the HTS automat, gently rinsed twice to eliminate detached cells and cell debris that could liberate inflammatory and potentially angiogenic cytokines, and incubated for 24 h in the presence of serum and the compounds to be tested. Each well was photographed at time 0 h (after wounding) and 24 h under a motorized epifluorescence microscope and the digitized images were analyzed using Image J to determine the percentage of wound closure (Figure 1A, 1B). Under our standard conditions, the closure rate was 72 ± 4% in the positive controls and 27 ± 4.% in the negative controls.
Confluent cell monolayers were wounded with a plastic pipet tip, washed gently with phosphate buffer saline (PBS) and treated with complete media containing molecules, as indicated. Cells were placed at 37°C into the incubator and photographed at indicated times. Quantitation of closure of the monolayer was performed using the NIH Image J program (http://rsbweb.nih.gov/ij/). Results are expressed as percentage of wound closure at t = 24 h as compared to the initial wound at t = 0 h.

Compound	Activity(HMEC vs 3T3), ratio between the IC50s on both cell types
CN(C)c1cccc2c(S(=O)(=O)NCCCO)cccc12 [COB220, 5-(Dimethylamino)-N-[3-hydroxypropyl]naphthalene-1-sulfonamide]	> 1.25
CN(C)CCCNS(=O)(=O)c1cccc2c(N(C)C)cccc12 [COB221, 5-(Dimethylamino)-N-[3-(dimethylamino)propyl]naphthalene-1-sulfonamide]	7.5
CN(C)c1cccc2c(S(=O)(=O)NCCCN3CCN(CCCNC(=O)OC(C)(C)C)CC3)cccc12 [COB223, tert-Butyl 3-(4-(3-(5-(dimethylamino)naphthalene-1-sulfonamido)propyl)piperazin-1-yl) propylcarbamate]	5
CC(C)(C)OC(=O)NCCCN1CCN(CCCN2C(=O)c3cccc4cccc(c34)C2=O)CC1 [COB227, N-{3-[4-(3-tert-Butoxycarbonylaminopropyl)piperazin-1-yl]propyl}-1,8-naphthalimide]	14 and 13.9
NCCCN1CCN(CCCN2C(=O)c3cccc4cccc(c34)C2=O)CC1 [COB228, N-{3-[4-(3-Aminopropyl)piperazin-1-yl]propyl}-1,8-naphthalimide hydrochloride]	1.6
CC(C)(C)OC(=O)NCCCN1CCN(CCCNS(=O)(=O)c2cccc3ccccc23)CC1 [COB235, tert-Butyl 3-(4-(3-(naphthalene-1-sulfonamido)propyl)piperazin-1-yl) propylcarbamate]	> 1.25
CC(C)(C)OC(=O)NCCCN1CCN(CCCNC(=O)OCc2ccc([N+](=O)[O-])cc2)CC1 [COB238, 4-Nitrobenzyl N-[3-(4-{3-[(tert-butoxycarbonyl)amino]propyl}piperazin-1-yl)propyl] carbamate]	> 2.5
CN(C)c1ccc2c3c(cccc13)C(=O)N(CCCNCCCNC(=O)OC(C)(C)C)C2=O [COB275, N-[3-((3-tert-Butoxycarbonylaminopropyl)amino)propyl]-4-dimethylamino-1,8-naphthalimide]	4
O=C1c2cccc3cc([N+](=O)[O-])cc(c23)C(=O)N1CCCNCCCN1C(=O)c2cccc3cc([N+](=O)[O-])cc(c23)C1=O [COB278, Bis-[(3-nitro-1,8-naphthalimido)propyl]amine]	2
CN(C)c1cccc2c(S(=O)(=O)NCCCNS(=O)(=O)c3cccc4c(N(C)C)cccc34)cccc12 [Compound 05-06-F11, 1,3-bis [5-(Dimethylamino)naphthalene-1-sulfonamido] diaminopropane]	2.6
NCCCCCCNS(=O)(=O)c1cccc2c(Cl)cccc12 [Compound W7, reference compound]	1
N-(5-(Dimethylamino)naphthalene-1-sulfonamido)-1,3-diamino-propane [Compound 05-06-L-D03]	8
N-(5-(Dimethylamino)naphthalene-1-sulfonamido)-N'-(tert-butoxycarbonyl)-1,3-diamino-propane [Compound 05-102-B09]	8.3
